Part of at least one peptide drawing is inferred or uncertain, most often the ends. No end group written: not given here.
tested on: human primary hepatocytes; assay: LDL uptake assay (BODIPY-labelled LDL, high content imaging); format: cell-based; settings: 5 uM peptide, 4 h
Protocol: The effects of putative cholesterol lowering peptides was assessed using LDL uptake assays in primary human hepatocytes from a pool of 10 healthy donors. Hepatocytes were treated with peptides as well as LDL-labelled BODIPY for 4 h. Cells were then fixed, permeabilized and imaged on an Opera Phenix high content imaging platform. LDL uptake was determined using BODIPY stain intensity.
Human primary hepatocytes were seeded into 96-well PhenoVue plates at 37K/well density and recovered overnight. The next say, hepatocytes were treated with 5 uM peptide or null control (DMSO) as well as a BODIPY-labelled LDL (Invitrogen™ Image-iT™ Low Density Lipoprotein Uptake Kit, Bodipy FL, I34359). This assay is designed to specifically detect binding and uptake of LDL through the LDL receptor internalization pathway, allowing maximum control and flexibility in experimental design. Two controls were built into the system, unlabeled LDL and heparin. Unlabeled LDL provides an optional pre-treatment to occlude cell surface receptors in advance of probing with the labeled construct, while heparin is provided as an additional control to chelate the LDL in the solution phase outside of the cells, thus preventing binding and uptake of the labeled LDL. Metformin, a type 2 diabetes drug with cholesterol lowering effects, was used as a positive control for increased LDL uptake (FIG. 1). Following peptide, control, and LDL-BODIPY treatment, cells were incubated for 4 h in a 37 C incubator with 5% CO2. Following incubation, cells were fixed with 4% paraformaldehyde for 15 min. Cells were then permeabilized and stained with DAPI to visualize nuclei. Wells were then washed with HBSS and imaged using a Perkin Elmer Opera Phenix high content imaging platform (fluorescence) at 20× magnification with 9 fields per well. BODIPY spot intensity was quantified using the Harmony image analysis software.

Sequence	LDL uptake: hit
LVVRWAVLVFRSSTAALPRAAEAARRSEKWPKTSALGRRS [SEQ ID NO: 26888]	hit
MMLPLWTFLERAMLLLISEVANRFKWSNGYTWKMPKA [SEQ ID NO: 36277]	No hit and hit
MTAAVSLTRSPAISASCAASRSASPWAWPWTWF [SEQ ID NO: 75353]	No hit and Hit

— patent US20250320254A1, “Compositions and Methods for Modulating Circulating Factors” (Flagship Pioneering Innovations VII, LLC, priority 2022, published 2025)
